Several values for one entry are separate records, joined by “and”; a condition that tells them apart may be missing. Equal entries are not always repeated. This continues a long series; more values of the same kind are listed elsewhere.
What was measured:
Assay type in all cases: in vivo
[1] = tested on: db/db mice; test: Indirect calorimetry (CLAMS): VO2, VCO2, RER; set-up: Figure 3g (VCO2), individual mice 1-6: unit not given here; conditions: BBR 150mg/kg; for Figure 3e (VO2), individual mice 1-6: in mL/kg/h (unit assumed)
Experimental: (§1) At week 5 of treatment, basal metabolic parameters of mice were measured using the Comprehensive Lab Animal Monitoring System (CLAMS, Columbus Instruments, Columbus, OH). […] The number of times the infrared beams were broken along the X- or Y-axis was used to measure the dynamic activity of mice. The respiratory exchange rate (RER) was calculated using classical Lusk theory and equations RER = VCO2/VO2.

[2] = tested on: db/db mice; test: Glucose tolerance test (GTT); set-up: unit not given here; conditions: individual mice
[3] = tested on: db/db mice; test: Spontaneous motor activity (CLAMS, infrared beam breaks); conditions: BBR 150mg/kg, individual mice 1-6
Experimental: as §1

[4] = tested on: db/db mice; test: Weekly fasting glucose levels of db/db mice; conditions: BJ 150mg/kg, individual mice 1-10, in mmol/L
Experimental: (§2) The lean wild type control and the db/db control mice were given equal vehicle volume (0.5% CMC-Na solution). All mice were monitored for food intake, body weight, and fasting blood glucose during the 35-day trial. Glucose tolerance test (GTT) and insulin resistance test (ITT) were performed at 4 and 5 weeks of treatment, respectively. Metabolic analysis was performed at 5 weeks of treatment. At the end of the study, blood samples were taken through the retroorbital venous sinus of mice, fat depots (brown fat, inguinal subcutaneous fat, epididymal fat, perirenal fat and mesenteric fat depot) were dissected, weighed, and immediately frozen in liquid nitrogen and stored at −80 °C until required. Weight of fat depots are expressed in percentage (fat depots weight /bodyweight * 100%).

[5] = tested on: db/db mice; test: Insulin tolerance test (ITT), AUC and initial slope; conditions: BJ 150mg/kg, individual mice, in mmol/L (unit assumed)
Experimental: Mice were fasted for 4 h for insulin resistance test and intraperitoneally injected with 1 unit/kg of insulin. Blood glucose levels were measured from the tail vein blood at 0, 15, 30, 45, 60, 90, and 120 min after injection. Plasma insulin levels were measured using an ultrasensitive mouse insulin ELISA kit (Nanjing Jiancheng Bioengineering Institute, Nanjing, China).

[6] = tested on: db/db mice; test: Body weight of db/db mice during 35-day treatment; conditions: 150 mg/kg gavage once per day
Experimental: as §2

COc1ccc2cc3[n+](cc2c1OC)CCc1cc2c(cc1-3)OCO2 [BBR, Berberine chloride dihydrate]
Figure 3g (VCO2), individual mice 1-6 ([1]; TIME 06:00:00): 2313.5 and 1840 and 1553.5 and 1397.5 and 1389.5 and 1693 | Figure 3e (VO2), individual mice 1-6 ([1]; TIME 06:00:00): 2660 and 2072 and 1864 and 1708 and 1672.5 and 1935.5 | Figure 3g (VCO2), individual mice 1-6 ([1]; TIME 07:00:00): 1600.5 and 1535.5 and 1875 and 1869 and 1617.5 and 1980 | Figure 3e (VO2), individual mice 1-6 ([1]; TIME 07:00:00): 1795 and 1708 and 2206.5 and 2273.5 and 1978.5 and 2274.5 | Figure 3g (VCO2), individual mice 1-6 ([1]; TIME 08:00:00): 1495 and 1825 and 1975 and 2243.5 and 2132.5 and 1535 | Figure 3e (VO2), individual mice 1-6 ([1]; TIME 08:00:00): 1715 and 2085 and 2314.5 and 2613.5 and 2534 and 1741.5 | Figure 3g (VCO2), individual mice 1-6 ([1]; TIME 1900-01-01 01:00:00): 2177 and 1670 | Figure 3g (VCO2), individual mice 1-6 ([1]; TIME 1900-01-01 02:00:00): 2187 and 1998.5 and 2588.5 and 2274 and 2168.5 and 1984.5 | Figure 3g (VCO2), individual mice 1-6 ([1]; TIME 1900-01-01 03:00:00): 2372.5 and 1993.5 and 2552 and 2306.5 and 1742 and 2336 | Figure 3e (VO2), individual mice 1-6 ([1]; TIME 1900-01-01 03:00:00): 2738 and 2324 and 3012 and 2802 and 2116 and 2720 | Figure 3g (VCO2), individual mice 1-6 ([1]; TIME 1900-01-01 04:00:00): 2538.5 and 2329.5 and 1944 and 1831 and 1537.5 and 2114 | Figure 3e (VO2), individual mice 1-6 ([1]; TIME 1900-01-01 04:00:00): 2910.5 and 2635.5 and 2276.5 and 2239 and 1918 and 2461 | Figure 3g (VCO2), individual mice 1-6 ([1]; TIME 1900-01-01 05:00:00): 2478.5 and 2023.5 and 1428 and 1354 and 1434.5 and 1684.5 | Figure 3e (VO2), individual mice 1-6 ([1]; TIME 1900-01-01 05:00:00): 2911 and 2308.5 and 1773.5 and 1662 and 1687 and 1963.5 | blood glucose level ([2]; BBR 150mg/kg, time column 1 of 7 (time not printed)): 14.0 and 15.5 and 13.3 | Spontaneous motor activity (Figure 3j) ([3]; TIME 06:00:00): 830.5 and 381.5 and 455 and 214.5 and 282.5 and 1467 | Spontaneous motor activity (Figure 3j) ([3]; TIME 07:00:00): 39 and 818.5 and 315 and 251 and 387.5 and 3173.5 | Spontaneous motor activity (Figure 3j) ([3]; TIME 08:00:00): 96 and 381.5 and 953 and 773 and 549 and 1084 | Spontaneous motor activity (Figure 3j) ([3]; TIME 1900-01-01 01:00:00): 617 and 872.5 | Spontaneous motor activity (Figure 3j) ([3]; TIME 1900-01-01 02:00:00): 233.5 and 654 and 915 and 190.5 and 777 and 170 | Spontaneous motor activity (Figure 3j) ([3]; TIME 1900-01-01 03:00:00): 832 and 535.5 and 566 and 30.5 and 303.5 and 84.5 | Spontaneous motor activity (Figure 3j) ([3]; TIME 1900-01-01 04:00:00): 988 and 900 and 503.5 and 436 and 774 and 437.5 | Spontaneous motor activity (Figure 3j) ([3]; TIME 1900-01-01 05:00:00): 626 and 807 and 81.5 and 1582 and 453 and 418

CC(C)Cc1ccc(C(C)C(=O)[O-])cc1.COc1ccc2cc3[n+](cc2c1OC)CCc1cc2c(cc1-3)OCO2.O.O.O.O [BJ, berberine-ibuprofen]
Weekly fasting glucose levels of db/db mice (Figure 5a) ([4]; 1st of 6 weekly columns (time not given)): 11.6 and 15.2 | Weekly fasting glucose levels of db/db mice (Figure 5a) ([4]; 2nd of 6 weekly columns (time not given)): 17.9 and 16.6 | Weekly fasting glucose levels of db/db mice (Figure 5a) ([4]; 3rd of 6 weekly columns (time not given)): 16.9 | Weekly fasting glucose levels of db/db mice (Figure 5a) ([4]; 4th of 6 weekly (time not given)): 18.3 and 9.2 and 11.4 | Weekly fasting glucose levels of db/db mice (Figure 5a) ([4]; 5th of 6 weekly (time not given)): 11.8 and 8.2 and 12.9 | Weekly fasting glucose levels of db/db mice (Figure 5a) ([4]; 6th of 6 weekly (time not given)): 10.6 and 7.9 and 10.2 | blood glucose level ([5]; time column 1 of 7 (time not printed)): 9.6 and 12.9 and 10.6 and 10.3 and 20.2 | blood glucose level ([5]; time column 2 of 7 (time not given)): 9.2 and 11.0 and 10.2 and 19.5 | blood glucose level ([5]; time column 3 of 7 (time not given)): 4.3 and 6.3 and 5.8 and 11.8 | blood glucose level ([5]; time column 4 of 7 (time not given)): 5.6 and 4.6 and 6.1 and 5.1 and 4.8 and 9.4 | blood glucose level ([5]; time column 5 of 7 (time not given)): 4.9 and 3.5 and 5.0 and 4.8 and 9.3 | blood glucose level ([5]; time column 6 of 7 (time not given)): 5.7 and 6.2 and 4.8 and 4.1 and 9.1 | blood glucose level ([5]; time column 7 of 7 (time not printed)): 6.9 and 4.2 and 7.0 and 6.6 and 6.1 and 14.7 | blood glucose level ([2]; BJ 75mg/kg, time column 1 of 7 (time not printed)): 20.1 and 18.7 and 23.3 and 22.6 and 20.8 and 20.2 and 20.6 and 15.8 and 20.7 and 22.7 | blood glucose level ([2]; BJ 75mg/kg, time column 2 of 7 (time not given)): 21.3 and 27.9 and 25.0 and 23.3 and 32.0 and 33.3 and 29.6 and 20.3 and 31.0 and 22.5 | blood glucose level ([2]; BJ 75mg/kg, time column 3 of 7 (time not given)): 25.1 and 33.3 and 31.1 and 31.9 and 32.2 and 26.7 | blood glucose level ([2]; BJ 75mg/kg, time column 4 of 7 (time not given)): 33.3 and 28.6 and 24.9 | blood glucose level ([2]; BJ 75mg/kg, time column 5 of 7 (time not given)): 25.0 and 33.3 and 28.6 and 25.7 | blood glucose level ([2]; BJ 75mg/kg, time column 6 of 7 (time not given)): 26.9 and 32.4 and 22.5 and 33.3 and 20.8 and 32.8 and 30.3 and 29.9 and 20.2 | blood glucose level ([2]; BJ 75mg/kg, time column 7 of 7 (time not printed)): 21.0 and 21.5 and 15.3 and 26.4 and 28.8 and 24.7 and 26.0 and 25.3 and 26.9 and 16.4 | blood glucose level ([2]; BJ 150mg/kg, time column 1 of 7 (time not printed)): 12.0 and 14.3 and 12.4 and 10.8 and 14.8 and 13.7 and 8.5 and 12.9 and 8.8 | blood glucose level ([2]; BJ 150mg/kg, time column 2 of 7 (time not given)): 24.8 and 23.3 and 26.1 and 33.3 and 20.2 and 23.4 and 28.2 and 30.8 and 29.1 and 25.2 | blood glucose level ([2]; BJ 150mg/kg, time column 3 of 7 (time not given)): 31.0 and 22.6 and 27.1 and 30.2 and 22.1 and 22.4 and 32.2 and 33.3 and 23.0 | blood glucose level ([2]; BJ 150mg/kg, time column 4 of 7 (time not given)): 26.1 and 17.6 and 23.8 and 30.3 and 21.9 and 29.5 and 24.9 and 26.9 and 22.2 | blood glucose level ([2]; BJ 150mg/kg, time column 5 of 7 (time not given)): 20.8 and 17.8 and 22.3 and 28.7 and 16.3 and 18.2 and 27.2 and 18.3 and 22.0 and 20.3 | blood glucose level ([2]; BJ 150mg/kg, time column 6 of 7 (time not given)): 15.4 and 12.6 and 20.1 and 26.1 and 19.2 and 14.9 and 22.1 and 18.6 and 17.9 and 16.7 | blood glucose level ([2]; BJ 150mg/kg, time column 7 of 7 (time not printed)): 13.0 and 7.9 and 19.2 and 20.7 and 15.2 and 15.7 and 19.8 and 14.7 and 16.2 and 15.3 | Body weight ([6]; day 1, individual mice): 41 grams and 43 grams and 40 grams and 37 grams and 39 grams and 36 grams | Body weight ([6]; day 4, individual mice): 44 grams and 41 grams and 43 grams and 40 grams and 42 grams and 38 grams and 36 grams | Body weight ([6]; day 7, individual mice): 44 grams and 42 grams and 41 grams and 43 grams and 38 grams and 37 grams | Body weight ([6]; day 10, individual mice): 43 grams and 42 grams and 45 grams and 41 grams and 37 grams and 40 grams | Body weight ([6]; day 13, individual mice): 44 grams and 41 grams and 45 grams and 42 grams and 43 grams and 38 grams | Body weight ([6]; day 16, individual mice): 45 grams and 42 grams and 44 grams and 43 grams | Body weight ([6]; day 19, individual mice): 43 grams and 41 grams and 44 grams and 42 grams and 40 grams | Body weight ([6]; day 22, individual mice): 44 grams and 42 grams and 45 grams and 40 grams and 43 grams and 41 grams | Body weight ([6]; day 25, individual mice): 41 grams and 43 grams and 42 grams and 45 grams and 40 grams | Body weight ([6]; day 28, individual mice): 42 grams and 44 grams and 40 grams and 41 grams | Body weight ([6]; day 31, individual mice): 45 grams and 47 grams and 44 grams and 43 grams and 42 grams | Body weight ([6]; day 34, individual mice): 47 grams and 44 grams and 45 grams and 42 grams

Source: article PMC9374667 (Communications Biology, 2022)
